Experimental data from PMC12541429.

Molecular target: T1, GFP-EFCAB10 (EF-hand calcium-binding domain protein 10) expressed in mEPCs (mouse) (UniProt Q9D581)
T1 sequence: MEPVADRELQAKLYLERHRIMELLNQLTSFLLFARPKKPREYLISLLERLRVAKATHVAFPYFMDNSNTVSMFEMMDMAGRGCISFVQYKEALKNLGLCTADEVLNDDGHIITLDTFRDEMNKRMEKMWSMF
Assay: affinity purification with mass spectrometry; immunoprecipitation of GFP-EFCAB10 from lentivirus-infected cultured mEPCs, followed by mass spectrometry (IP-MS)

binding: binds
B1: AK8 (adenylate kinase 8), endogenous in mEPCs (protein, UniProt Q32M07 1-479)
chain: MDATTAPHRIPPEMPQYGEDYYIFEMMQNMLEQLLIHQPEDPISFMITHLRRNNDNVPKVVILGPPASGKTTIAMWLCKHLNSNLITKESLLEREFSRLSVEAKSYYQVYKKIPNSILVSLVQERLNEDDCLRKGWILDGIPERREQALMIQTLGLAPKHVIVLNAPDTVLIERNVGKRIDPVTGEIYHTTFDWPPEPEIQNRLRQPEGISEIETAKKLLEYHRHIIRILPSYPKILKTISSDQPCVDVFYQALTYVQSGHRCNAPFTPKVLLCGPLGSGKRLQATLLAQKYGLVNISCGQLLKEAVAAKSSFGELIQPFFEKRMTVPDSIITKVLADRMEQQDCIQKGWVLHGFPRDLDQARMLNSMGYNPNRVFFLSVPLDSILERLTLRRTDPVTGERFHLMYKPPPTIEVQVRLLQNPKDSEEYIKLQTDLFYRNSGDLEQYYDRAIIVNGDQDPYTVFEYIESGIINPLPRKVT

binding: binds
B2: radial spoke head protein 4 homolog A (RSPH4A), endogenous in mEPCs (protein, UniProt Q8BYM7 1-716)
chain: MENSTSLKQEKENQEPGEAERLWQGESDVSPQEPGPPSPEYREEEQRTDTEPAPRMSPSWSHQSRVSLSTGDLTAGPEVSSSPPPPPLQFHSTPLNTETTQDPVAASPTEKTANGIADTGTPYSDPWESSSAAKQSTSHYTSHAEESTFPQSQTPQPDLCGLRDASRNKSKHKGLRFDLLQEEGSDSNCDPDQPEVGASEAAQSMLEVAIQNAKAYLLSTSSKSGLNLYDHLSKVLTKILDERPADAVDIIENISQDVKMAHFNKKLDTLHNEYEMLPAYEIAETQKALFLQGHLEGADSELEEEMAESSLPNVMESAYYFEQAGVGLGTDETYRVFLALKQLTDTHPIQRCRFWGKILGLEMNYIVAEVEFRDGEDEEEVEEEGIAEERDNGGSEAGEEEEEELPKSLYKAPQVIPKEESRTGANKYVYFVCNVPGRPWVRLPSVTPAQIVTARKIKKFFTGRLDAAVISYPPFPGNESNYLRAQIARISAGTHVSPLGFYQFGEEEGEEEEVEGGRDSYEENPDFEGIQVIDLVESLSNWVHHVQYILPQGRCNWFNPIQKDEDEEEEEEEDEEKGEEPDYIEQEVGPPLLTPISEDLGIQNIPSWTTQLSSNLIPQYAIAVLRSNLWPGAYAFSNGKKFENFYIGWGHKYCVENYTPPSPPPVYQEYPSGPEITEMNDPSVEEEQAFRMTQEPVALSTEENEGTEDEDEDDED

binding: binds
B3: radial spoke head protein 3 homolog B (RSPH3B), endogenous in mEPCs (protein, UniProt Q9DA80 1-389)
chain: MTDRNPRTAEASGLYTYSSRPRAVACQRRRHRDSILQPVEEPMSYGNIMYDRRVIRGNTYALPTGQVPGQPDPLELQRQQQARRRALARKRAQEQLKPRTPEPVEGRKHVDIQTELYLEEIADRIVEVDMECQTDAFLDRPPTPLFIPAKTGKDVATQILGGELFDFDLEVKPMLEVLVGKTIEQSLLEVMEEEELANLRARQYAYEEIRNVELAEVQRLEEQERRHREEKERRKKQQWEIVHKRNETLQKISALIFARQYLANLLPSVFDKLRNSGFFYDPIERDIEVGFLPWLMNEVEKSMEHSMVGRTVLDMLIRDVVERRINDYEHKEAMPPGQKTNVINGPNTVTDPSVTTLHTQKPVLDRVSSQPAPSQERKPVEEGGHLMAE

Results are given in words; binding and its absence hold for the method and conditions named. Binding seen in cells or lysates may run through a third protein. A yes stands for co-enrichment or nearness to the bait. Other partners may have been found. Tags and fused reporters may be left off the sequences shown. Each block holds one binder with its values, some of them ahead of it.
